Binding data for one molecule are collected here from doi:10.1101/2025.11.17.688911.

Results are given in words; binding and its absence hold for the method and conditions named. Tags and fused reporters may be left off the sequences shown.

The experiment has as its target full-length (FL) human MAP9 (GFP::Human MAP9::strepII) (human) (UniProt Q49MG5). Nature of the experiment: mass photometry; purified MAP9 in solution; measured mass against the expected monomer mass; both purified.

B1: full-length (FL) human MAP9 (GFP::Human MAP9::strepII) (protein, UniProt Q49MG5 1-647)
chain: MSDEVFSTTLAYTKSPKVTKRTTFQDELIRAITARSARQRSSEYSDDFDSDEIVSLGDFSDTSADENSVNKKMNDFHISDDEEKNPSKLLFLKTNKSNGNITKDEPVCAIKNEEEMAPDGCEDIVVKSFSESQNKDEEFEKDKIKMKPKPRILSIKSTSSAENNSLDTDDHFKPSPRPRSMLKKKSHMEEKDGLEDKETALSEELELHSAPSSLPTPNGIQLEAEKKAFSENLDPEDSCLTSLASSSLKQILGDSFSPGSEGNASGKDPNEEITENHNSLKSDENKENSFSADHVTTAVEKSKESQVTADDLEEEKAKAELIMDDDRTVDPLLSKSQSILISTSATASSKKTIEDRNIKNKKSTNNRASSASARLMTSEFLKKSSSKRRTPSTTTSSHYLGTLKVLDQKPSQKQSIEPDRADNIRAAVYQEWLEKKNVYLHEMHRIKRIESENLRIQNEQKKAAKREEALASFEAWKAMKEKEAKKIAAKKRLEEKNKKKTEEENAARKGEALQAFEKWKEKKMEYLKEKNRKEREYERAKKQKEEETVAEKKKDNLTAVEKWNEKKEAFFKQKEKEKINEKRKEELKRAEKKDKDKQAINEYEKWLENKEKQERIERKQKKRHSFLESEALPPWSPPSRTVFAKVF
Regarding B1, the binding result is recorded as “no binding”.
